Measured values as given in doi:10.64898/2025.12.11.693769.
Results are given in words; binding and its absence hold for the method and conditions named. In cells and extracts the contact can be indirect. Binding can be weak; no strength is given. Tags and fused reporters may be left off the sequences shown.

B1: 723-luciC (protein, UniProt Q8DV01 1-893)
chain: MFKKQKRDSFYVQDEKTVLSGLESSKKGLTSTQAKQRLADYGYNELEEDEKRTILAKFIDQFKDLMIIILLVAAALSVITEGMGGLTDAIIILVVVVLNAAFGVYQEGQAEAAIEALKSMSSPHARVRRDGHVTEIDSKELVPGDVVLLEAGDVVPADMRLLEAASLKIEEAALTGESVPVEKSVTVAIASDAGIGDRLNMAYQNSNVTYGRGMGVVTNTGMYTEVGHIAGMLANADETDTPLKQSLDNLSKVLTYVIIIIAIITCLVGIFVRHEEPLEGLMVAVALAVAAIPEGLPAIVTVVLSLGTKTLAKRQSIVRKLPAVETLGSTEIIASDKTGTLTMNQMTVEKVYYNGRLVDANDDIDVNNMALRVMNFANDSKVDANGKLIGDPTETALVQYGFDHNFDIREVLKAELRVAELPFDSDRKLMSTIHKLDGEKYLIAVKGAPDQLLKRITQIEIDGSIRPITEDDKKAILDMNKSLAKQALRVLMIAYKYESEIPKLETAVVENDLIFAGLVGMIDPERPEAAEAVHVAKEAGIRPIMITGDHQDTAEAIAKRLGIIDDDGIDHVFTGAELNELSDEEFQKVFKQYSVYARVSPEHKVRIVKAWQNDGKIVAMTGDGVNDAPSLKTADIGIGMGITGTEVSKGASDMVLADDNFATIIVAVEEGRKVFSNIQKSIQYLLSANMAEVFTIFFATLFGWDVLQPVHLLWINLVTDTLPAIALGVEPAEPGVMTHKPRGRKSSFFSGGVMGAIIYQGILQTLLVLGVYGWAVFFPEHATRTEIHADALTMAFATLGLIQLVHAYNVKSVYQSIFKVGFFKNKTFNWALPTALIIMLATIVIPGFNRFFHVSHLSVTQWCVVVGGSLAMFVIVEIVKAIQRVLGQDQKAI
B2: GapC-luciC (enzyme, UniProt Q8DVV3 1-337)
chain: MVVKVGINGFGRIGRLAFRRIQNVEGVEVTRINDLTDPNMLAHLLKYDSTQGRFDGNVEVKEGGFEVNGKFVKVSAERDPEQIDWAADGVEIVLEATGFFASKAAAEKHLHANGGAKKVVITAPGGNDIKTIVFNTNHDVLDGTETVISGASCTTNCLAPMAKALHDNFSIKEGLMTTIHAYTGDQMVLDGPHRKGDLRRARAAAANIVPNSTGAAKAIGLVIPELNGKLDGAAQRVPVPTGSVTELVAVLDKKVTVDEVNAAMKAAANESYGYTEDPIVSSDIVGMSFGSLFDATQTKVLDVDGKQLVKVVSWYDNEMSYTSQLVRTLEYFAKIAK

Molecular target: DacA-luciN (Streptococcus mutans)
Test: split reporter

Binder	binding
B1	binds
B2	binds
